# Measured values published in the supplement of paper PMC10338343.
# ± gives the standard deviation. Some of the results follow. Many entries were measured with a wide error.
# System: EfPiwi piRISC loaded with L1MC piRNA (26 nt)
# Experiment: pre-steady-state target cleavage rate (min^-1); guide: L1MC piRNA 5'p-UAACUAAAUACUAUGCAAGCUGUAGG; MIWI and MILI are mouse PIWI proteins and EfPiwi is from a freshwater sponge; tags in brackets are library labels; higher = faster piRNA-guided slicing of the target
# Details: auxiliary factor: 500 nM Ephydatia muelleri Gtsf1
# How it was run: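 Sequencing of uncleaved targets, normalised to depth and to weakly complementary targets, was the readout of this Cleave-'n-Seq assay. A transcribed, DNA-blocked target RNA library (0.1 nM) was mixed with 1 nM active affinity-purified piRISC carrying one synthetic guide, with or without 500 nM GTSF1 partner protein, in HEPES–potassium acetate buffer at 33 °C for 0–8 or 0–960 min. Three trials were pooled, k3 was capped at 0.0001 min^-1, and a burst-and-steady-state fit gave the pre-steady-state cleavage rate.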
row,Sequence,pre-steady-state target cleavage rate
1,UCCUGCUACAGCUUAGCAUAGUAUUUAGUUA,0.0477 ± 0.015
2,UCCUGCUAGAGCUUGCAUAGUAUUUAGUUA,0.00838 ± 0.0023
3,UCCUGGUACACCUUGCUUAGUAUUUAGUUA,0.00384 ± 0.0027
4,UCCUCCUACAGCAUUGCAUAGUAUUUAGUUA,0.0213 ± 0.0068
5,UCCUGGUACAGCUUGCAUAGUAAUUAGUAA,0.00568 ± 0.0029
6,UCCUCCUAGAGCAUGCAUAGUAUUUAGUUA,0.0163 ± 0.0058
7,UCCUGGUACAGCUUGCUUAGUAUAUAGUUA,0.0737 ± 0.025
8,UCCUCCUACACCUUGCAUAGUAUUUAGUUA,0.0762 ± 0.025
9,UCCUGGAUGUCCUUGCAUAGUAUCUAGUUA,0.00775 ± 0.0043
10,UCCUGGAUCAGCCUGCAUAGUAUUUAGUUA,0.0209 ± 0.006
11,UCCUGCUACAGCUUGGAUAGUAUAUAGUUA,0.0128 ± 0.0037
12,UCCUGGAUCACGCUUGCAUAGUAUUUAGUUA,0.223 ± 0.05
13,UCCUGGAACAGGUUGGAUAGUAUUUAGUUA,0.00375 ± 0.0014
14,UCCUGGAUCAGCUUGGUUAGUAUUUAGUAA,0.00158 ± 0.004
15,UCCUCCUUCAGCUUGCAUAGUAUUAAGUUA,0.00716 ± 0.0031
16,UCCUGGAUGUGCUUGCAAAGUAUAUAGUUA,0.000556 ± 0.0089
17,UCCUGGAUGUCGAACGUAAGUAUUUGAGUUA,0.000221 ± 0.024
18,UCCUGGAAGUGCUUGCAUAGUAUUUAGUUA,0.00537 ± 0.0019
19,UCCUGGAUGUGGUUGCAUAGUAUUUAGUAA,0.11 ± 0.056
20,UCCUCCUAGAGCUUGCAUAGUAUUUAGUAA,0.00608 ± 0.0021
21,UCCUGCUACAGCUUGCAUAGUAUCUAGUUA,0.00723 ± 0.0019
22,UCCUCCUACAGCUUGGAUAGUAUUUAGAAA,0.00325 ± 0.0015
23,UCCUGGAUCUGCUUGCUUAGUAUUUAGUUA,0.0931 ± 0.028
24,UCCUGGAACAGCAUGCAUAGUAUUUAGUUA,0.0466 ± 0.011

# Quoted at random: 2 entries already listed
row,Sequence,pre-steady-state target cleavage rate
8,UCCUCCUACACCUUGCAUAGUAUUUAGUUA,0.0762 ± 0.025
19,UCCUGGAUGUGGUUGCAUAGUAUUUAGUAA,0.11 ± 0.056
